Assay results published in patent US20250145673A1.
Substitutions are numbered along the chain they refer to. These are yes or no findings as the source states them, for the method shown. Some entries that bind do so weakly or less than the wild type. Each block holds one binder with its values, some of them ahead of it.

The chains behind the UniProt entries cited, without tags or fusion partners. Residues count along the entry.
UniProt P01024, residues 23-1663: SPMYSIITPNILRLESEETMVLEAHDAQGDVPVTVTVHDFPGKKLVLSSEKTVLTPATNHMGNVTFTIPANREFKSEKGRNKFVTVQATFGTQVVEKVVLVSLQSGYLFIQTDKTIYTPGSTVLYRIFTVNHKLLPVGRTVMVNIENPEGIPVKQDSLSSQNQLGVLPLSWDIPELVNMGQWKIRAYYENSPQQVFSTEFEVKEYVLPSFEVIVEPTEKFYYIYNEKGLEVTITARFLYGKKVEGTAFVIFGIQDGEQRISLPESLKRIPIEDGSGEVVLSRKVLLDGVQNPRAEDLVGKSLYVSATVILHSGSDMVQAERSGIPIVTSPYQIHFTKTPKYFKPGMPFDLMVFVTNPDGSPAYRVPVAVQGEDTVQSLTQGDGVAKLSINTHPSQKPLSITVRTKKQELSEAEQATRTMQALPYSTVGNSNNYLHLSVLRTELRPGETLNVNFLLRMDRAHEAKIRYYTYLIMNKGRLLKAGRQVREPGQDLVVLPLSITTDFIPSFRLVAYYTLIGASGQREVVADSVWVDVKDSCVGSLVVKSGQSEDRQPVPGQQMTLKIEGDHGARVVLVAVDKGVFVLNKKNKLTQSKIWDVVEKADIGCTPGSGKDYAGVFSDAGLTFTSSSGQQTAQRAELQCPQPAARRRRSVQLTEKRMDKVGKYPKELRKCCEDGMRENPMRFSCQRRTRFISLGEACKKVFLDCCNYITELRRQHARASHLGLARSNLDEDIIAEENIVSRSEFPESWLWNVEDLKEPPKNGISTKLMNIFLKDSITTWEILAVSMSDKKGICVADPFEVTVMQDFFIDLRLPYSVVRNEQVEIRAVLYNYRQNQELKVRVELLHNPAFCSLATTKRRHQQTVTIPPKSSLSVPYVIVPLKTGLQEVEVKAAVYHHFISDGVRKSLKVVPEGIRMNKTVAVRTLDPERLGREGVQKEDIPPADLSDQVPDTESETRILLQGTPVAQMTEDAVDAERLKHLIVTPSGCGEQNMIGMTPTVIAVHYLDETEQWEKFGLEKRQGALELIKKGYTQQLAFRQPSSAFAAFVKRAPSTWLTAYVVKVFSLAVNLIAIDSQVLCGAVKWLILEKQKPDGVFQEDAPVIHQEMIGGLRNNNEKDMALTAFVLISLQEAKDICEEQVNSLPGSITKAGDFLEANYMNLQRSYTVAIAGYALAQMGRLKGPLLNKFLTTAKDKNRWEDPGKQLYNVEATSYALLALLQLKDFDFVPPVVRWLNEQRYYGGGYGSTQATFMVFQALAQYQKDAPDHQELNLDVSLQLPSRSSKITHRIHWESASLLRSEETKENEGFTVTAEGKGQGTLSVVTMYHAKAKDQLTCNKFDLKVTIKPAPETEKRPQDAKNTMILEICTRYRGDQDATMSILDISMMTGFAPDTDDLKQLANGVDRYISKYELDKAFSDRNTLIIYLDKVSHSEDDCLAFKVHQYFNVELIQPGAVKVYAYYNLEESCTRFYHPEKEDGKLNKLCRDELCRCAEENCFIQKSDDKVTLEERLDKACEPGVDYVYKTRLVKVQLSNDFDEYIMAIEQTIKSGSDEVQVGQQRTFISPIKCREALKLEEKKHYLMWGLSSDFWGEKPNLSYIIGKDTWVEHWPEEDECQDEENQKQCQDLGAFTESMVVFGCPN

What was measured:
[1] = biological target: complement component 3 (C3) (UniProt P01024); assay: ITC and SPR (Table 20)
[2] = biological target: complement component 3 (C3) (UniProt P01024); assay: SPR, single cycle kinetics
[3] = biological target: complement component 3 (C3) (UniProt P01024); assay: SPR, single cycle kinetics, 1:1 Langmuir fit

binding [1]: binds | binding [2]: binds | binding [3]: binds
B1: polypeptide having the amino acid sequence of SEQ ID NO: 27 (designed binder)
chain: MVKVKFEATGEEKEVDTSKIYQVYRSGKEVLFTYDDNGKTGWGYVSEKDAPKELLDMLARAEREK

binding [1]: binds | binding [3]: binds
B2: polypeptide comprising the amino acid sequence of SEQ ID NO: 33 (designed binder)
chain: MVKVKFAATGEEKEVETSKIANVYRVGKDVLFSYDDQGKIGWGYVSEKDAPKELLDLLARAEREK

binding [1]: binds | binding [3]: binds
B3: polypeptide comprising the amino acid sequence of SEQ ID NO: 34 (designed binder)
chain: B2 chain with A7D, A21S, N22A, V26T
